Laboratory results: PubChem BioAssay AID1259281 (Sanger Institute, 2017)
Here is one part, drawn at random, of 794 deposited reagents. 22 of them (2.8%) count as active. 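Calls rest on knock-down alone only; drug synergy scores play no part in them.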 A number with no mark means an inactive call. Viability is capped at 1. Not given: the amount of reagent, the time to read-out.

Purpose: 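Screen kinases and frequently colorectal-mutated genes for lethal knock-downs and drug partners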 (primary screen)
Cells: human COLO678 colorectal cancer cell line
Reagent: siRNA pool against human genes
Challenge: anchor drugs at fixed doses: BYL719 1 µM, cetuximab 5 µg/ml or trametinib 10 nM; DMSO vehicle for the siRNA-alone arm
Read-out: 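Surviving cells scaled to non-targeting siRNA control as replicate means; robust z-score for knock-down alone; synergy scores weigh knock-down with drug against the predicted combined effect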
Reading the numbers: robust z-score, siRNA alone: higher = more viable cells; strongly negative means essential; viability, siRNA alone: higher = more surviving cells; synergy score with BYL719 and synergy score with trametinib and synergy score with cetuximab: higher = stronger synergistic killing with drug
Rule for the call: 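Called essential (knock-down alone) if knock-down by itself drops cell number to a robust z-score under -3; all others no change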
Calls: active = essential (knock-down alone); inactive = no change

The first 4 records as a preview:
no.	gene knocked down	robust z-score, siRNA alone	viability, siRNA alone (fraction of control)	synergy score with BYL719	synergy score with trametinib	synergy score with cetuximab
1	PRKX	-0.13	0.981	-0.109	0.00882	-0.0754
2	PFKFB3	0.473	1	0.134	0.0733	0.0899
3	CSNK2A1	0.473	1	-0.0919	0.0195	-0.0497
4	RTN4	0.473	1	0.0479	0.0966	-0.0681

Main list, repeating the preview:
no.	gene knocked down	robust z-score, siRNA alone	viability, siRNA alone (fraction of control)	synergy score with BYL719	synergy score with trametinib	synergy score with cetuximab
1	PRKX	-0.13	0.981	-0.109	0.00882	-0.0754
2	PFKFB3	0.473	1	0.134	0.0733	0.0899
3	CSNK2A1	0.473	1	-0.0919	0.0195	-0.0497
4	RTN4	0.473	1	0.0479	0.0966	-0.0681
5	VRK1	0.473	1	-0.0351	0.0135	-0.0442
6	STK11	0.405	0.998	-0.0302	-0.0046	-0.000606
7	LRRK2	0.473	1	-0.0598	0.0264	-0.0463
8	PRKD1	0.0183	0.986	-0.105	0.117	0.0581
9	EPHB1	0.473	1	-0.0412	0.0989	0.0576
10	BCOR	0.473	1	-0.0152	0.0218	0.0354
11	MKNK1	0.473	1	0.0285	0.00204	0.0384
12	NME2	0.473	1	-0.0919	-0.104	-0.0656
13	CAMKV	0.473	1	-0.0294	0.0934	0.0307
14	KCNH2	0.473	1	-0.0919	0.0348	-0.0305
15	ERBB4	0.473	1	0.0243	-0.0542	0.0354
16	PIK3C3	0.473	1	0.053	0.0228	0.0639
17	NEK8	-0.138	0.981	0.13	-0.0489	0.0451
18	RPS6KC1	0.473	1	-0.0919	-0.0637	-0.0681
19	FGFR2	0.473	1	0.0829	0.0735	0.0197
20	PKN3	-0.814	0.959	-0.129	0.0265	-0.0934
21	MAPK10	0.473	1	0.0108	-0.0169	0.0257
22	NRAS	0.473	1	0.0117	0.00335	0.0193
23	TPK1	0.473	1	-0.0396	0.0393	-0.0487
24	STRADA	0.473	1	0.00791	0.0532	0.0531
25	PAK4	0.473	1	-0.00507	0.0555	-0.0223
26	CDK18	0.473	1	0.0159	0.0471	-0.0499
27	RIPK2	0.473	1	-0.0483	0.0487	-0.0276
28	HCK	0.473	1	0.0736	0.0554	0.0088
29	NME3	0.473	1	0.0108	0.0129	-0.0681
30	MAP4K5	0.473	1	0.201	0.033	0.0554
31	STK17A	-0.477	0.97	-0.00387	0.0283	0.046
32	CKMT2	-0.624	0.965	0.0236	0.0573	-0.0939
33	PIK3C2A	0.473	1	0.0463	0.141	0.0364
34	NME5	0.473	1	-0.0919	0.064	-0.0681
